Data taken from article PMC8096952, “Similar pharmacokinetics and pharmacodynamics of a new biosimilar and reference insulin aspart in healthy Chinese males” (Scientific Reports, 2021).

System: C-peptide
Assay: Serum C-peptide during euglycemic clamp (endogenous insulin secretion)
Format: in vivo
Settings: healthy Chinese males, single 0.2 U/kg s.c., 10-h euglycemic clamp, ELISA; for Postdosing C-peptide: mean ± SD, N = 30
Description: The euglycemic clamp study was performed after inserting two catheters (an antecubital venous catheter for infusing 20% dextrose and a retrograde venous catheter in the hand heated in a box at 55–65℃ for measuring blood glucose). After collecting the basal blood glucose level [defined as the mean of the glucose measurement of several times (− 60, − 30, − 20, − 10 min) before dosing], the subjects received a 0.2 U/kg dose of NovoRapid or RD10046 by s.c. injection into a lifted abdominal skin-fold. Blood samples were obtained at the bedside for immediate determination of whole blood glucose concentrations and then monitored every 5 min from 0 to 240 min and every 10 min from 240 to 600 min after dosing. During the euglycemic clamp, the GIR was varied as necessary to maintain the blood glucose concentration within approximately ± 10% of the target level (defined as 0.28 mmol/L below the subject’s basal glucose level). The investigator made the GIR adjustment based on glucose measurements and experience. If the GIR fell to zero for at least 30 min, the clamp was discontinued. A 4-mL blood sample was collected at the following points for analysis of C-peptide and IAsp concentration: − 30, 0 (before dosing), 10, 20, 30, 40, 50, 60, 90, 120, 150, 180, 210, 240, 270, 300, 360, 420, 480 and 600 min. The baseline of C-peptide was defined as the mean value of two measurements at − 30 and 0 min.
Whole blood glucose concentrations were tested with a glucose analyzer (Biosen C_line GP+, Neckar Healthcare. Co. Ltd., Magdeburg, Germany) using an automated glucose oxidase technique. Serum C-peptide levels were analyzed using an ELISA (Cat. No. 80‐CPTHU‐E01.1; ALPCO, Salem, NH), and plasma IAsp concentrations were assessed by means of a validated, ultra-performance liquid chromatography-tandem mass spectrometry (UPLC-MS/MS) method at Covance Laboratories in Shanghai. The ranges of quantification were 20–3000 pmol/L for C-peptide and 0.2–10 ng/mL for IAsp.

Row | Substance | AUC0–10h of C-peptide | Postdosing C-peptide
1 | insulin aspart [RD10046] | 139 ± 11.8 nmol·min/L | 206 ± 63.3 pmol/L
2 | insulin aspart [NovoRapid] | 135 ± 9.77 nmol·min/L | 200 ± 63.0 pmol/L
